# Screen size: about 340,000 compounds; about 6,200 (1.8%) were called active. The inconclusive results got no clear call from the source; some entries with a clear call stand among them for comparison. Calls follow the shape of the dose curve; as a rule, active = well fitted activation curve with a large enough effect; inconclusive = small, poorly fitted or top-dose-only effect; inactive = no such curve, though single readings can be large or run the other way. Potencies beside an inconclusive call are fits to weak or partial responses and may not hold up.
# Test: A quantitative high throughput screen for small molecules that induce DNA re-replication in SW480 colon adenocarcinoma cells. Also: nearly all actives have a fitted effect of over 55% in size.
# Conditions: Hoechst DNA content imaging, 48 h; series mostly up to 46.1 µM
# Method in brief: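 Treated cells incubate 48 hr (37 C, 5% CO2), are stained 40 min with Hoechst, and nuclear fluorescence is enumerated; a rise in nuclei with high DNA signal marks re-replication.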
# Potency is read from the fitted curve at half-maximal effect.
row,Compound,Potency
1,O=[N+]([O-])c1ccc(-c2cn3nc(-c4ccccc4)c(-c4ccccc4)nc3n2)cc1,"inconclusive: 6.51 µM [activator, partial curve, poor fit]"
2,COc1cc(-c2c(-c3ccc4c(c3)OCO4)noc2C)ccc1F,"inconclusive: 23.1 µM [activator, partial curve, poor fit]"
3,Cc1cc(C)cc(SCc2noc(C(=O)NC(C)C)c2C(=O)O)c1,"inconclusive: 1.16 µM [activator, partial curve, poor fit]"
4,O=C(O)c1ccc2oc(=O)c(S(=O)(=O)c3ccccc3)cc2c1,inactive
5,COc1cc(/C=C/C(=O)Nc2ccc(OC)c(S(=O)(=O)N3CCOCC3)c2)ccc1OCC#N,"inconclusive: 9.2 µM [activator, partial curve, poor fit]"
6,Cc1ccc([N+](=O)[O-])cc1N/C=C1\CCc2ccccc2C1=O,inactive
7,CSc1nc2c(c(=O)[nH]1)C(c1ccccc1)C1=C(CC(C)(C)CC1=O)N2 (stereo not drawn),"inconclusive: 29.1 µM [activator, partial curve, poor fit]"
8,CC(C)(C)NC(=O)COc1ccc(CNCc2ccccn2)cc1,inactive
9,COc1ccc(C2C(C#N)=C(N)Nc3nc4ccccc4n32)cc1 (stereo not drawn),inactive
10,O=c1[nH][nH]c(=O)c(Cl)c1Cl,inactive
11,NC1=NC(c2ccc(Cl)cc2)C(C(=O)c2ccccc2)N1 (stereo not drawn),"inconclusive: 4.11 µM [activator, full curve, poor fit]"
12,Cc1ccc(OCCCC(=O)Nc2ccc(Cl)c(S(=O)(=O)N3CCOCC3)c2)cc1,"inconclusive: 29.1 µM [activator, single point]"
13,CCCCCn1c(=NC(=O)c2cccnc2)c(C#N)cc2c(=O)n3cccc(C)c3nc21,active: 8.2 µM
14,Cc1ccc(C)c(NC(=O)/C(C#N)=C/c2ccc[nH]2)c1,"inconclusive: 18.4 µM [activator, partial curve, poor fit]"
15,COc1cccc(OC)c1C(=O)Nc1ccc2c(c1)CCCN2S(=O)(=O)c1ccc(C)cc1,inactive
16,CN(C)c1ccc(/C=C/c2cccc[n+]2[O-])cc1,"inconclusive: 29.1 µM [activator, single point]"
17,O=[N+]([O-])c1ccc(-c2cnc(SC(c3ccccc3)c3ccccc3)[nH]2)cc1,"inconclusive: 29.1 µM [activator, single point]"
18,CCOC(=O)c1cc2sccc2n1CC(=O)C(C)(C)C,"inconclusive: 7.31 µM [activator, partial curve, poor fit]"
19,CSC(SC)=C(C#N)C(=O)c1ccccc1,"inconclusive: 8.2 µM [activator, single point]"
20,CCC1C(c2ccccc2)N(C)C(c2ccccc2)CC1(O)c1ccccc1 (stereo not drawn),"inconclusive: 18.4 µM [activator, single point]"
21,COc1cc2sc3ccc(-c4ccc(N(C)C)nc4)cc3c(=O)c2cc1OC,inactive
22,CCn1c(-c2ccc3[nH]c(C)c(C)c3c2)n[nH]c1=S,"inconclusive: 23.1 µM [activator, single point]"

row,Compound,Potency
1,CCCOc1ccc(C(=O)C(CN2CCOCC2)c2ccccc2)cc1 (stereo not drawn),active: 11.2 µM
2,O=C1CSC(c2cn(-c3ccccc3)nc2-c2cc3ccccc3o2)N1Cc1ccccc1 (stereo not drawn),inactive
3,COc1ccccc1N(C(=O)c1ccncc1)c1nc(-c2ccc([N+](=O)[O-])cc2)cs1,"inconclusive: 20.6 µM [activator, single point]"
4,CC12CCC(O)CC1=CCC1C2CCC2(C)c3[nH]ncc3CC12 (stereo not drawn),"inconclusive: 29.1 µM [activator, single point]"
5,Cc1cc(N/N=C/c2cccc(Cl)c2)nc(-n2nc(C)cc2C)n1,"inconclusive: 29.1 µM [activator, single point]"
6,Cc1ccc(NC(=S)c2ccc(N(C)C)cc2)cc1,"inconclusive: 18.4 µM [activator, single point]"
7,Cc1noc(/C=C/c2ccco2)c1S(=O)(=O)N1CCC(C(=O)N2c3ccccc3CC2C)CC1 (stereo not drawn),"inconclusive: 10.3 µM [activator, partial curve, poor fit]"
8,CCN1CCN(CCNC(=O)c2ccc(CS(=O)c3ccc(Br)cc3)o2)CC1 (stereo not drawn),"inconclusive: 16.4 µM [activator, single point]"
9,O=C1N/C(=N/c2ccccn2)SC1Cc1ccccc1 (stereo not drawn),"inconclusive: 29.1 µM [activator, single point]"
10,O=C(Nc1ccccc1)N1CCc2c([nH]c3ccccc23)C1C(F)(F)F (stereo not drawn),"inconclusive: 23.1 µM [activator, single point]"
11,COc1ccc(C2c3c(ncn(CCCO)c3=N)Oc3ccc4ccccc4c32)cc1OC (stereo not drawn),"inconclusive: 23.1 µM [activator, single point]"
12,O=C(NC(=S)Nc1ccc(Cl)cn1)C(c1ccccc1)c1ccccc1,"inconclusive: 29.1 µM [activator, single point]"
13,Cc1cc(C)c2nc(NNC(=O)c3cc(-c4cccs4)nc4ccccc34)sc2c1,"inconclusive: 18.4 µM [activator, single point]"
14,Cc1ccc(NC(=O)Cn2nnc(C(=O)NCc3ccco3)c2N)c(C)c1,"inconclusive: 10.3 µM [activator, partial curve, poor fit]"
15,COc1ccc(C(C[N+](=O)[O-])c2c(C)[nH]n(-c3ccccc3)c2=O)cc1 (stereo not drawn),"inconclusive: 2.82 µM [activator, full curve]"
16,C/C(=N\Nc1ccc(C(=O)O)cc1)c1ccc(S(=O)(=O)NCc2ccco2)cc1,inactive
17,Nc1c(C(=O)N2CCCC2)sc2nc(-c3ccccc3)ccc12,active: 18.4 µM
18,Cc1c(/C=N/NC(=O)c2cccs2)c2ccccc2n1Cc1ccccc1Cl,active: 14.6 µM
19,CCCc1cc(N2CCCC(C(=O)Nc3c(OC)cccc3OC)C2)n2ncnc2n1 (stereo not drawn),inactive
20,c1ccc(-c2nc3nonc3nc2-c2ccccc2)cc1,"inconclusive: 29.1 µM [activator, single point]"
21,COc1ccc(Cl)cc1NC(=O)C(=O)N/N=C/c1cc(C)n(-c2ccc(C)cc2)c1C,inactive

# Quoted at random: two entries already listed, in no set order.
row,Compound,Potency
14,Cc1ccc(NC(=O)Cn2nnc(C(=O)NCc3ccco3)c2N)c(C)c1,"inconclusive: 10.3 µM [activator, partial curve, poor fit]"
16,CN(C)c1ccc(/C=C/c2cccc[n+]2[O-])cc1,"inconclusive: 29.1 µM [activator, single point]"

# — PubChem BioAssay AID624297 (National Center for Advancing Translational Sciences (NCATS), 2012)
